# Data taken from PubChem BioAssay.
# Sequences of proteins named here, by UniProt entry; tags and fusion partners are left off.
# UniProt P08183, whole entry, looked up: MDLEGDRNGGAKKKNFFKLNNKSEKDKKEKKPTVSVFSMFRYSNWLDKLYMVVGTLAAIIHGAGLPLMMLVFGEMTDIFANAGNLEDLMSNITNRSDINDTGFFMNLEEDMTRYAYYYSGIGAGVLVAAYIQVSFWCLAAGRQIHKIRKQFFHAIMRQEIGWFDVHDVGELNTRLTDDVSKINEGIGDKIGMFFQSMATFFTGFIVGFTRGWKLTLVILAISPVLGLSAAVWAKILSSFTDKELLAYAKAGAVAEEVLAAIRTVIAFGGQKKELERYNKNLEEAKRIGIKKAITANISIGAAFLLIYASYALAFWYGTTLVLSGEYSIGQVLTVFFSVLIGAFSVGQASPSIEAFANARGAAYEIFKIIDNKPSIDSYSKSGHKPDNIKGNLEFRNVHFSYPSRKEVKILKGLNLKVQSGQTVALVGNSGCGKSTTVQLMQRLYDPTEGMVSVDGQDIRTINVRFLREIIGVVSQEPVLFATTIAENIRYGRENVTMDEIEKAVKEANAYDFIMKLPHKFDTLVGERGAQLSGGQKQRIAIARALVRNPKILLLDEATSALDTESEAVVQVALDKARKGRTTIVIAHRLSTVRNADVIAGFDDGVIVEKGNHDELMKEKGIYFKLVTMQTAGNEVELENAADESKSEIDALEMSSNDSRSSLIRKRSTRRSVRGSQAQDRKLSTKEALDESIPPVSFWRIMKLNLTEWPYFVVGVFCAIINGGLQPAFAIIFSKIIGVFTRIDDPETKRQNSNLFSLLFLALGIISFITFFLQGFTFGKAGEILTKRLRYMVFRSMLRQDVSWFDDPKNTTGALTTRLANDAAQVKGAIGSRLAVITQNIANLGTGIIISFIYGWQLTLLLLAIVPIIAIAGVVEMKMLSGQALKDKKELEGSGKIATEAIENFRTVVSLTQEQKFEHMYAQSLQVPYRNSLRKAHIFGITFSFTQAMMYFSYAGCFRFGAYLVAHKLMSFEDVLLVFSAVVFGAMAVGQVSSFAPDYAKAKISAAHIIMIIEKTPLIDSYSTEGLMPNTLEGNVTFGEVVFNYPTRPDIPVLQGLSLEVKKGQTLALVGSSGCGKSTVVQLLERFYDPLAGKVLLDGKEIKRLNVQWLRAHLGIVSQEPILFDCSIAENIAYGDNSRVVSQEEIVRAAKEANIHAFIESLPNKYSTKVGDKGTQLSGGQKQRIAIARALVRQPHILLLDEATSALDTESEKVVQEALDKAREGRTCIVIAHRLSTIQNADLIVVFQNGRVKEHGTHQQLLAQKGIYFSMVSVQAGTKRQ
# Inconclusive results, whose numbers are uncertain, are shown with a selection of clear calls. For part of these data: Potencies of inconclusive entries are doubtful fits and often do not repeat. Calls of active or inactive are those of the source. Unless noted, cut-off not given; nearly all actives show AC50 up to about 26 µM.
# Legend:
# [1] = growth inhibition of DIPG glioma cells, dose response, cell-based, SU-DIPG-XVII, MIPE5.0, CellTiter-Glo, qHTS (AID 1347060); details: SU-DIPG-XVII viability, CellTiter-Glo ATP luminescence;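 on AC50: cells exposed to compound for 48 hours before viability readout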
# [2] = growth inhibition of DIPG glioma cells, dose response, cell-based, SU-DIPG-XIII, MIPE4.0, CellTiter-Glo, qHTS (AID 1347061; cut-off not given, nearly all actives have AC50 up to about 37 µM;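 further: cells exposed to compound for 48 hours before readout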); details: SU-DIPG-XIII viability, CellTiter-Glo ATP luminescence
# [3] = growth inhibition of DIPG glioma cells, dose response, cell-based, SU-DIPG-IV, MIPE4.0, CellTiter-Glo, qHTS (AID 1347063; cut-off not given, nearly all actives have AC50 up to about 30 µM;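 further: compound exposure lasted 48 hours before the viability readout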); details: SU-DIPG-IV viability, CellTiter-Glo ATP luminescence
# [4] = growth inhibition of DIPG glioma cells, dose response, cell-based, SU-DIPG-XIII, MIPE5.0, CellTiter-Glo, qHTS (AID 1347064; cut-off not given, nearly all actives have AC50 up to about 23 µM;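 on AC50: cells exposed to compound for 48 hours before the viability read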); details: SU-DIPG-XIII viability, CellTiter-Glo ATP luminescence
# [5] = viability loss in pontine glioma line – cell-based, SU-DIPG-XXV, MIPE5.0, CellTiter-Glo, qHTS, dose response (AID 1347065); details: CellTiter-Glo ATP luminescence;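 further: cells exposed to compound for 48 hours before ATP readout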
# [6] = SU-DIPG-VI glioma cell viability, MIPE4.0 library, CellTiter-Glo luminescence, qHTS (AID 1347066; cut-off not given, nearly all actives have AC50 up to about 30 µM;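 further: cells exposed to compound for 48 hours before readout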); details: CellTiter-Glo ATP luminescence
# [7] = growth inhibition of DIPG glioma cells, dose response, cell-based, JHH-DIPG-1, MIPE4.0, CellTiter-Glo, qHTS (AID 1347062; cut-off not given, nearly all actives have AC50 up to about 27 µM;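 further: cells exposed to compound for two days before readout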); details: JHH-DIPG-1 viability, CellTiter-Glo ATP luminescence
# [8] = JHH-DIPG-1 glioma cell viability, MIPE5.0 library, CellTiter-Glo luminescence, qHTS (AID 1347067); details: JHH-DIPG-1 glioma viability, CellTiter-Glo ATP luminescence;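 further: cells exposed to compound for 48 hours before readout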
# [9] = SU-DIPG-XXV glioma cell viability, MIPE5.0 library, qHTS (AID 1347068; cut-off not given, nearly all actives have IC50 up to about 30 µM;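 on IC50: cells exposed to compound for 48 hours before viability readout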)
# [10] = inhibitors of polyQ aggregate elongation, biochemical, solid-phase synthetic aggregates, QA3 (AID 1585; call rule not given here); details: biotin-polyQ incorporation, at 100 µM, hits give high values
# [11] = polyglutamine aggregation reduction, turbidity readout, qthio, single concentration 25 µM screen (AID 1588; call rule not given here); details: at 25 µM, hits give low values
# [12] = protection of motor neurons from glutamate death, cell-based, TUNEL DNA degradation staining, MNGlu (AID 1594; call rule not given here); details: glutamate-induced death, at 1 µM, hits give high values
# [13] = enhancers of SMN2 over SMN1 splicing, cell-based, SMN2/SMN1 luciferase reporters (AID 1598; call rule not given here); details: SMN2 vs SMN1 luciferase splicing reporter cells; at 10 µM; hits give high values
# [14] = mitochondrial permeability transition inhibitors (AID 1580; call rule not given here); details: isolated mitochondria, permeability transition inhibition; active call at 10 uM (0/1): at 10 µM, hits give high values
# [15] = target: ATP-dependent translocase ABCB1 (Homo sapiens) (UniProt P08183); assay: MDR1 (ABCB1) efflux transporter inhibition, cell-based (AID 377; in the data active means fluorescence slope change above about 50%; inconclusive means mostly about 31% to 49%); details: MDR1-expressing cells, fluorescent substrate accumulation slope; hits give high values; concentration not given here
smiles,measurement,setting,value
CCCc1nn(C)c2c(=O)[nH]c(-c3cc(S(=O)(=O)N4CCN(C)CC4)ccc3OCC)nc12,outcome,[1],inactive
same,AC50,[2],inconclusive: 0.235 µM [cytotoxic]
same,outcome,[3],inactive
same,outcome,[4],inactive
same,AC50,[5],inconclusive: 0.00186 µM [cytotoxic]
same,AC50,[6],inconclusive: 11.8 µM [cytotoxic]
COc1ccc(-c2cc3nccn3c(Nc3ncccc3C(N)=O)n2)cc1OC,AC50,[1],active: 11.8 µM
same,AC50,[2],inconclusive: 13.2 µM [cytotoxic]
same,AC50,[7],inconclusive: 11.8 µM [cytotoxic]
same,AC50,[6],inconclusive: 3.32 µM [cytotoxic]
same,AC50,[8],inconclusive: 3.32 µM [cytotoxic]
same,IC50,[9],inconclusive: 5.9 µM [cytotoxic]
Clc1cc(Cl)cc(CNc2ncncc2-c2ccc3c(c2)OCO3)c1,AC50,[1],inconclusive: 29.5 µM [cytotoxic]
same,outcome,[2],inactive
same,AC50,[3],inconclusive: 16.6 µM [cytotoxic]
same,AC50,[4],inconclusive: 11.8 µM [cytotoxic]
same,AC50,[5],inconclusive: 20.9 µM [cytotoxic]
same,outcome,[6],inactive
same,AC50,[8],inconclusive: 3.32 µM [cytotoxic]
same,IC50,[9],inconclusive: 14.8 µM [cytotoxic]
Nc1nc(N)c(N=O)c(OCC2CCCCC2)n1,AC50,[1],inconclusive: 13.2 µM [cytotoxic]
same,AC50,[2],inconclusive: 18.7 µM [cytotoxic]
same,AC50,[3],active: 4.69 µM
same,AC50,[4],inconclusive: 5.9 µM [cytotoxic]
same,AC50,[5],inconclusive: 16.6 µM [cytotoxic]
same,AC50,[6],active: 14.8 µM
same,AC50,[8],inconclusive: 16.6 µM [cytotoxic]
c1ccc([C@H]2CN3CCSC3=N2)cc1,inhibition,[10],inconclusive: 5.85%
same,aggregation (% of control),[11],inconclusive: 92.7%
same,protection,[12],inconclusive: -2%
same,SMN2/SMN1 luciferase ratio,[13],inconclusive: 0.95
same,outcome,[1],inactive
same,outcome,[2],inactive
same,AC50,[3],inconclusive: 0.0118 µM
same,outcome,[4],inactive
same,outcome,[5],inactive
same,AC50,[6],inconclusive: 0.0235 µM
C[C@H]1c2cccc(O)c2C(O)=C2C(=O)[C@]3(O)C(O)=C(C(N)=O)C(=O)[C@@H](N(C)C)[C@@H]3[C@@H](O)[C@@H]21,active call at 10 uM (0/1),[14],inconclusive: 1
same,inhibition,[10],inconclusive: 27.6%
same,aggregation (% of control),[11],inconclusive: 95.3%
same,SMN2/SMN1 luciferase ratio,[13],inconclusive: 1.01
same,AC50,[1],inconclusive: 18.6 µM [cytotoxic]
same,outcome,[2],inactive
same,AC50,[3],inconclusive: 33.2 µM [cytotoxic]
same,AC50,[4],inconclusive: 18.6 µM [cytotoxic]
same,AC50,[5],inconclusive: 37.2 µM [cytotoxic]
same,AC50,[6],inconclusive: 37.2 µM [cytotoxic]
same,AC50,[8],inconclusive: 23.5 µM [cytotoxic]
same,IC50,[9],inconclusive: 16.6 µM [cytotoxic]
Cc1ccc(-n2[nH]c(C)c(N=Nc3cccc(-c4cccc(C(=O)O)c4)c3O)c2=O)cc1C,AC50,[1],inconclusive: 16.6 µM [cytotoxic]
same,AC50,[2],inconclusive: 18.7 µM [cytotoxic]
same,AC50,[3],inconclusive: 23.5 µM [cytotoxic]
same,outcome,[4],inactive
same,AC50,[5],inconclusive: 9.34 µM [cytotoxic]
same,AC50,[6],active: 10.5 µM
same,outcome,[9],inactive
Cc1ccc(NC(=O)c2cccc(N(C)C)c2)cc1NC(=O)c1ccc(O)cc1,AC50,[1],inconclusive: 20.9 µM [cytotoxic]
same,AC50,[2],active: 0.662 µM
same,AC50,[3],active: 0.935 µM
same,AC50,[4],inconclusive: 8.33 µM [cytotoxic]
same,AC50,[5],inconclusive: 0.0105 µM [cytotoxic]
same,AC50,[6],inconclusive: 4.69 µM [cytotoxic]
same,AC50,[8],inconclusive: 18.6 µM [cytotoxic]
C[C@H](NC(=O)Cc1cc(F)cc(F)c1)C(=O)N[C@H](C(=O)OC(C)(C)C)c1ccccc1,AC50,[1],inconclusive: 7.42 µM [cytotoxic]
same,outcome,[2],inactive
same,AC50,[3],inconclusive: 9.35 µM [cytotoxic]
same,outcome,[4],inactive
same,AC50,[5],inconclusive: 0.742 µM [cytotoxic]
same,AC50,[6],inconclusive: 0.00526 µM [cytotoxic]
same,IC50,[9],inconclusive: 0.00132 µM
N#C/C(=C\c1ccc(O)c(O)c1)C(=O)NCc1ccccc1,AC50,[1],inconclusive: 20.9 µM [cytotoxic]
same,AC50,[2],inconclusive: 26.4 µM [cytotoxic]
same,AC50,[3],inconclusive: 6.62 µM [cytotoxic]
same,AC50,[4],inconclusive: 4.68 µM [cytotoxic]
same,AC50,[5],inconclusive: 10.5 µM [cytotoxic]
same,AC50,[6],inconclusive: 37.2 µM [cytotoxic]
same,AC50,[8],inconclusive: 18.6 µM [cytotoxic]
CCc1nc(-c2cccc(C)c2)c(-c2ccnc(NC(=O)c3ccccc3)c2)s1,AC50,[1],inconclusive: 37.2 µM [cytotoxic]
same,AC50,[2],inconclusive: 7.43 µM [cytotoxic]
same,outcome,[3],inactive
same,AC50,[4],inconclusive: 37.2 µM [cytotoxic]
same,AC50,[5],inconclusive: 37.2 µM [cytotoxic]
same,AC50,[6],inconclusive: 37.2 µM [cytotoxic]
same,AC50,[8],inconclusive: 26.3 µM
same,IC50,[9],inconclusive: 29.5 µM [cytotoxic]
COc1ccc(CCC(=O)Nc2nc3ccc(Cl)cc3s2)cc1OC,AC50,[1],inconclusive: 16.6 µM [cytotoxic]
same,AC50,[2],inconclusive: 18.7 µM [cytotoxic]
same,AC50,[3],inconclusive: 10.5 µM [cytotoxic]
same,AC50,[4],inconclusive: 18.6 µM [cytotoxic]
same,AC50,[5],inconclusive: 33.2 µM [cytotoxic]
same,AC50,[6],inconclusive: 18.7 µM [cytotoxic]
same,outcome,[9],inactive
COc1ccc2c(c1OC)C(=O)OC2[C@H]1c2c(cc3c(c2OC)OCO3)CCN1C (stereo partly specified),inhibition,[10],inconclusive: -0.89%
same,aggregation (% of control),[11],inconclusive: 94.9%
same,protection,[12],inconclusive: 1%
same,SMN2/SMN1 luciferase ratio,[13],inconclusive: 0.88
same,AC50,[1],inconclusive: 26.3 µM [cytotoxic]
same,AC50,[2],inconclusive: 5.9 µM [cytotoxic]
same,AC50,[3],inconclusive: 0.0296 µM [cytotoxic]
same,AC50,[4],inconclusive: 5.9 µM [cytotoxic]
same,AC50,[5],inconclusive: 26.3 µM [cytotoxic]
same,AC50,[6],inconclusive: 0.59 µM [cytotoxic]
same,AC50,[8],inconclusive: 16.6 µM [cytotoxic]
same,IC50,[9],inconclusive: 23.5 µM [cytotoxic]
Cc1ccccc1C(C(=O)NC1CCCCC1)N(C(=O)CNc1ccc(C#N)cc1)c1cccc(F)c1 (stereo unspecified),AC50,[1],inconclusive: 14.8 µM [cytotoxic]
same,outcome,[2],inconclusive
same,outcome,[3],inactive
same,AC50,[4],inconclusive: 105 µM [cytotoxic]
same,AC50,[5],inconclusive: 11.8 µM [cytotoxic]
same,outcome,[6],inactive
same,outcome,[9],inactive
CCN(CC)CCCCNc1nc2cc(Cl)c(Cl)cc2nc1-c1ccc(-c2cccs2)s1,AC50,[1],active: 6.61 µM
same,AC50,[2],inconclusive: 26.4 µM [cytotoxic]
same,AC50,[3],active: 7.43 µM
same,AC50,[4],inconclusive: 9.34 µM [cytotoxic]
same,AC50,[5],active: 5.25 µM
same,AC50,[6],active: 14.8 µM
same,IC50,[9],inconclusive: 33.2 µM
CC1=C(/C=C/C(C)=C/C=C/C(C)=C/C(=O)O)C(C)(C)CCC1,fluorescence slope change,[15],active: 101%
same,inhibition,[10],inconclusive: 15.6%
same,aggregation (% of control),[11],inconclusive: 98.9%
same,protection,[12],inconclusive: 7%
same,SMN2/SMN1 luciferase ratio,[13],inconclusive: 1.1
same,AC50,[1],inconclusive: 0.00934 µM [cytotoxic]
same,AC50,[2],inconclusive: 23.5 µM [cytotoxic]
same,AC50,[3],inconclusive: 0.00743 µM [cytotoxic]
same,AC50,[4],inconclusive: 6.61 µM [cytotoxic]
same,AC50,[5],inconclusive: 0.0118 µM [cytotoxic]
same,AC50,[6],inconclusive: 0.187 µM [cytotoxic]
same,outcome,[9],inactive
C[C@@H]1CN(Cc2ccc(F)cc2)[C@@H](C)CN1C(=O)c1cc2c(C(=O)C(=O)N(C)C)cn(C)c2cc1Cl,outcome,[1],inactive
same,AC50,[2],inconclusive: 13.2 µM [cytotoxic]
same,AC50,[3],inconclusive: 20.9 µM [cytotoxic]
same,outcome,[4],inactive
same,AC50,[5],inconclusive: 8.33 µM [cytotoxic]
same,AC50,[6],inconclusive: 0.0418 µM [cytotoxic]
same,AC50,[8],inconclusive: 23.5 µM [cytotoxic]
Cc1cc(Cl)ccc1OCCCC(=O)NO,AC50,[1],inconclusive: 23.5 µM [cytotoxic]
same,AC50,[2],inconclusive: 18.7 µM [cytotoxic]
same,AC50,[3],inconclusive: 8.33 µM [cytotoxic]
same,AC50,[4],inconclusive: 0.00209 µM
same,AC50,[5],inconclusive: 37.2 µM [cytotoxic]
same,AC50,[6],inconclusive: 0.00105 µM [cytotoxic]
same,AC50,[8],inconclusive: 8.33 µM [cytotoxic]
O=c1cc(-c2ccc(O)cc2)oc2cc(O)cc(O)c12,inhibition,[10],inconclusive: 0.89%
same,aggregation (% of control),[11],inconclusive: 84.8%
same,SMN2/SMN1 luciferase ratio,[13],inconclusive: 0.94
same,AC50,[1],active: 16.6 µM
same,AC50,[2],inconclusive: 16.6 µM [cytotoxic]
same,AC50,[3],active: 2.96 µM
same,AC50,[4],active: 16.6 µM
same,AC50,[5],inconclusive: 33.2 µM [cytotoxic]
same,AC50,[6],inconclusive: 3.32 µM [cytotoxic]
same,AC50,[8],inconclusive: 23.5 µM [cytotoxic]
same,IC50,[9],inconclusive: 20.9 µM [cytotoxic]
CC1CCC(C(=O)N(c2cc(C#CC(C)(C)C)sc2C(=O)O)C2CCC(O)CC2)CC1 (stereo unspecified),AC50,[1],active: 26.3 µM
same,outcome,[2],inactive
same,AC50,[3],inconclusive: 20.9 µM [cytotoxic]
same,AC50,[4],inconclusive: 37.2 µM [cytotoxic]
same,AC50,[5],inconclusive: 37.2 µM [cytotoxic]
same,AC50,[6],inconclusive: 23.5 µM [cytotoxic]
same,AC50,[8],active: 23.5 µM
same,IC50,[9],inconclusive: 26.3 µM [cytotoxic]
Clc1ccc(C(Cn2ccnc2)OCc2ccsc2Cl)c(Cl)c1 (stereo unspecified),AC50,[1],inconclusive: 16.6 µM [cytotoxic]
same,AC50,[2],inconclusive: 33.2 µM [cytotoxic]
same,AC50,[3],inconclusive: 18.7 µM [cytotoxic]
same,AC50,[4],inconclusive: 18.6 µM [cytotoxic]
same,AC50,[5],inconclusive: 11.8 µM [cytotoxic]
same,AC50,[6],inconclusive: 20.9 µM [cytotoxic]
same,AC50,[8],inconclusive: 18.6 µM [cytotoxic]
same,IC50,[9],inconclusive: 20.9 µM [cytotoxic]
